{"source": "PubChem BioAssay AID504444", "about": "(National Center for Advancing Translational Sciences (NCATS), 2011)", "note": "Among all 360,000 compounds or so, about 7,500 (2.1%) were called active. The inconclusive results got no clear call from the source; some entries with a clear call stand among them for comparison. Calls come from the whole dose curve; as a rule, active = well fitted inhibition curve with a large enough effect; inconclusive = small, poorly fitted or top-dose-only effect, or effect the other way; inactive = flat fitted curve, though single readings scatter. Potencies beside an inconclusive call are fits to weak or partial responses and may not hold up. % is set by controls: 0 for no effect and ±100 for the full control effect; potency is the fitted concentration of half-maximal effect."}
{"assay": "Nrf2 qHTS screen for inhibitors; note: nearly all actives have a fitted effect of over 60% in size", "conditions": "A549 ARE-Fluc reporter, luciferase luminescence, 18-24 h; activity change, negative = inhibition: at 46 µM (top of the series)", "outline": "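Quantitative HTS in A549 cells stably bearing an antioxidant response element-firefly luciferase construct. Inhibition of Nrf2-driven transcription was scored by luminescence after 18-24 h of compound exposure at 37 °C.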"}
{"smiles": "O=C(NNC(=S)Nc1cccc(C(F)(F)F)c1)c1ccc(Cl)cc1Cl", "Potency": "inconclusive: 29.1 µM [falling, single point]"}
{"smiles": "COCCNC(=O)CCCn1c(SCC(=O)c2ccc(Br)cc2)nc2c(sc3ccccc32)c1=O", "activity change, negative = inhibition": "inactive: 15.8%"}
{"smiles": "O=C(COc1coc(CN2CCc3ccccc3C2)cc1=O)N1CCOCC1", "activity change, negative = inhibition": "inactive: 7.27%"}
{"smiles": "O=S(=O)(Nc1ccccc1Cl)c1ccc2[nH]c(=S)oc2c1", "Potency": "inconclusive: 2.06 µM [falling, partial curve, poor fit]"}
{"smiles": "COCCN(C(=O)COC(=O)/C(=C/c1ccccc1)NC(C)=O)c1c(N)n(Cc2ccccc2)c(=O)[nH]c1=O", "activity change, negative = inhibition": "inactive: -8.63%"}
{"smiles": "O=C(Nc1ccc(NC(=O)c2ccc([N+](=O)[O-])cc2[N+](=O)[O-])cc1)c1ccco1", "Potency": "inconclusive: 6.51 µM [falling, partial curve, poor fit]"}
{"smiles": "CCc1sc(N(C(=O)Cc2ccccc2)c2cccc(F)c2)nc1-c1ccc(C)cc1", "Potency": "inconclusive: 11.6 µM [activator, partial curve, poor fit]"}
{"smiles": "C=CCN(C(=O)CCC(=O)Nc1cc(C)on1)C(C(=O)NC(C)(C)C)c1ccc(OC)cc1", "note": "(stereo unspecified)", "Potency": "inconclusive: 29.1 µM [falling, single point]"}
{"smiles": "CC(=O)Nc1cccc(-c2cc(C)c3cc4c(cc3n2)OCO4)c1", "Potency": "inconclusive: 9.2 µM [activator, partial curve]"}
{"smiles": "Clc1ccc(CNc2nc(CN3CCOCC3)nc3scc(-c4ccccc4)c23)cc1", "Potency": "inconclusive: 29.1 µM [falling, single point]"}
{"smiles": "CCC[N+](CC#Cc1ccccc1)(CCC)CC(=O)OC", "Potency": "inconclusive: 18.4 µM [activator, partial curve, poor fit]"}
{"smiles": "COc1ccc(NC(=O)c2cccn(CC=C(C)C)c2=O)cc1", "Potency": "inconclusive: 29.1 µM [falling, single point]"}
{"smiles": "Cc1nc(-c2ccc(F)cc2)c(CC(=O)N(C)CC(=O)Nc2ccccc2Cl)s1", "activity change, negative = inhibition": "inactive: 0.502%"}
{"smiles": "Cc1cc(C)cc(NC(=O)CSc2nnc(NC(=O)C3CC3)s2)c1", "activity change, negative = inhibition": "inactive: -6.8%"}
{"smiles": "Cn1c(=O)c2c(-c3ccc(Br)cc3)n(Cc3ccc(F)cc3)cc2n(C)c1=O", "Potency": "inconclusive: 23.1 µM [falling, single point]"}
{"smiles": "CCN(CC)c1nc2ccccc2nc1C(C#N)C(=O)NCCc1ccccc1", "note": "(stereo unspecified)", "Potency": "inconclusive: 18.4 µM [falling, partial curve, poor fit]"}
{"smiles": "CC1CCCCN1S(=O)(=O)c1ccc(C(=O)Nc2sccc2C(N)=O)cc1", "note": "(stereo unspecified)", "Potency": "inconclusive: 32.6 µM [falling, single point]"}
{"smiles": "CCc1nn(CC(=O)NCCCN(CC)CC)c(=O)c2cc3occc3n12", "Potency": "inconclusive: 29.1 µM [activator, single point]"}
{"smiles": "O=C(NC(=S)Nc1ccc(N2CCOCC2)cc1)c1ccc2c(c1)OCCO2", "Potency": "inconclusive: 29.1 µM [falling, single point]"}
{"smiles": "Cc1nn(CCC(N)=S)c2nc(-c3cccs3)cc(C(F)(F)F)c12", "Potency": "inconclusive: 18.4 µM [falling, partial curve, poor fit]"}
{"smiles": "OCCCCCNc1ncnc2ccccc12", "Potency": "inconclusive: 13 µM [falling, partial curve]"}
{"smiles": "COc1ccc(N(C)S(=O)(=O)c2cccc(C(=O)N3CCN(Cc4ccc5c(c4)OCO5)CC3)c2)cc1", "Potency": "inconclusive: 23.1 µM [falling, partial curve, poor fit]"}
{"smiles": "O=C(O)c1cc(N/N=C/c2c(O)ccc3ccccc23)ccc1Cl", "Potency": "inconclusive: 11.6 µM [activator, partial curve]"}
{"smiles": "CN(C)S(=O)(=O)c1cccc(NC(=O)CSc2nc3c(cc2C#N)C(=O)CC(C)(C)C3)c1", "Potency": "inconclusive: 29.1 µM [falling, single point]"}
{"smiles": "O=S(=O)(c1cccc2ccccc12)N1CCN(c2nc(-c3cccs3)nc3ccccc23)CC1", "activity change, negative = inhibition": "inactive: -10.4%"}
{"smiles": "CCCOc1ccc(C(=O)Nc2ccc(N3CCN(C(C)=O)CC3)cc2)cc1", "Potency": "inconclusive: 18.4 µM [falling, partial curve, poor fit]"}
{"smiles": "Cc1nnc(SCC(=O)Nc2ccc(O)cc2)c2ccccc12", "Potency": "inconclusive: 20.6 µM [falling, single point]"}
{"smiles": "O=c1[nH]c2ccccc2n1CCCSCCCn1c(=O)[nH]c2ccccc21", "Potency": "inconclusive: 23.1 µM [falling, single point]"}
{"smiles": "COC(=O)c1onc(-c2ccccc2)c1C(=O)OC", "activity change, negative = inhibition": "inactive: -4.42%"}
{"smiles": "CC(=O)c1cccc(Nc2ccc(-c3ccccc3F)nn2)c1", "Potency": "inconclusive: 25.9 µM [activator, single point]"}
{"smiles": "COc1cccc(CN(C)C(=O)c2ccc3c(=O)n4c(nc3c2)CCC4)c1OC", "Potency": "inconclusive: 23.1 µM [activator, single point]"}
{"smiles": "CC(=O)NC(c1ccc2ccccc2c1)c1ccc2cccnc2c1O", "note": "(stereo unspecified)", "Potency": "active: 14.6 µM"}
{"smiles": "O=C(Nc1nc2ccccc2n1Cc1ccccc1)c1ccco1", "Potency": "active: 16.4 µM"}
{"smiles": "CCOC(=O)c1c(CN(C)C)n(C)c2c(O)c(N=NC(N)=O)c3ccc(Br)cc3c12", "Potency": "inconclusive: 29.1 µM [falling, partial curve, poor fit]"}
{"smiles": "CCN(CC)C(=O)Cn1c(=O)n(CC2CCC(C(=O)NC)CC2)c(=O)c2sccc21", "note": "(stereo unspecified)", "Potency": "inconclusive: 14.6 µM [activator, single point]"}
{"smiles": "CCCn1c(C)cc(-c2csc(N)n2)c1C", "activity change, negative = inhibition": "inactive: 13.6%"}
{"smiles": "Oc1ccc(NC(=S)N=Nc2c(O)[nH]c3ccc(Br)cc23)cc1", "activity change, negative = inhibition": "inactive: -3.24%"}
{"smiles": "COc1ccccc1CNC(=O)c1cnc2ccccn2c1=O", "activity change, negative = inhibition": "inactive: 12.5%"}
{"smiles": "COc1ccc(CCNC(=O)C2CCN(Cc3nc(-c4ccc(OC)c(OC)c4)oc3C)CC2)cc1OC", "Potency": "inconclusive: 29.1 µM [activator, partial curve, poor fit]"}
{"smiles": "CCc1ccccc1Oc1ccc(S(=O)(=O)N2CCN(C)CC2)cn1", "Potency": "inconclusive: 14.6 µM [activator, partial curve]"}
{"smiles": "Cc1ccc(/C=C(\\C#N)C(=O)Nc2cccc(Cl)c2)o1", "Potency": "inconclusive: 13 µM [activator, partial curve]"}
{"smiles": "COc1ccc(NC(=O)c2cc(NC(=O)C3CCCCC3C(=O)O)ccc2N2CCOCC2)cc1", "note": "(stereo unspecified)", "activity change, negative = inhibition": "inactive: -6.71%"}
{"smiles": "Cc1cc(OCC(=O)O/N=C(\\N)c2ccccc2)ccc1Br", "Potency": "inconclusive: 20.6 µM [activator, single point]"}
{"smiles": "O=C(NCCn1cc(SCc2ccc(Br)cc2)c2ccccc21)c1cccs1", "Potency": "inconclusive: 29.1 µM [falling, single point]"}
{"smiles": "CCCCn1nnc(NC(=S)NC(=O)c2cccs2)n1", "Potency": "inconclusive: 3.26 µM [activator, partial curve, poor fit]"}
{"smiles": "NS(=O)(=O)c1ccc(N2N=C(c3ccccc3)CC2c2cccc(Br)c2)cc1", "note": "(stereo unspecified)", "Potency": "inconclusive: 14.6 µM [falling, single point]"}
{"smiles": "O=C(COc1ccc(/C=N/NC(=O)c2cc3ccccc3o2)cc1Br)Nc1ccccc1", "Potency": "inconclusive: 29.1 µM [falling, single point]"}
{"smiles": "O=C(CN1CCN(C(=O)c2c(F)cccc2F)CC1)Nc1ccccc1F", "Potency": "inconclusive: 0.164 µM [activator, full curve, poor fit]"}
{"smiles": "COc1ccc(C(CC(=O)NCc2ccc(Cl)cc2)N2Cc3ccccc3C2=O)cc1OC", "note": "(stereo unspecified)", "Potency": "inconclusive: 29.1 µM [activator, single point]"}
{"smiles": "O=C(NCc1ccccc1C(F)(F)F)C1CC(c2ccc(C(F)(F)F)cc2)=NO1", "note": "(stereo unspecified)", "Potency": "inconclusive: 32.6 µM [falling, single point]"}
{"smiles": "Cc1ccc(Cl)cc1-n1c(SCC(=O)NCCC2=CCCCC2)nc2n[nH]c(C)c2c1=N", "Potency": "inconclusive: 6.51 µM [falling, partial curve]"}
{"smiles": "Cc1cc(C)cc(NC(=O)C2CCCN2S(=O)(=O)c2ccc3nc(-c4ccccc4)[nH]c3c2)c1", "note": "(stereo unspecified)", "Potency": "inconclusive: 20.6 µM [falling, single point]"}
{"smiles": "O=C(/C=C/c1ccccc1)Nc1ccc(Cl)cn1", "Potency": "inconclusive: 0.291 µM [activator, full curve, poor fit]"}
{"smiles": "CCOc1ccc(-c2ccc(NS(=O)(=O)c3ccc([N+](=O)[O-])cc3)cc2)nn1", "Potency": "inconclusive: 32.6 µM [falling, partial curve, poor fit]"}
{"smiles": "CCNC(=S)Nc1cc(-c2ccc(Cl)cc2)[nH]n1", "Potency": "inconclusive: 29.1 µM [falling, single point]"}
{"smiles": "CC(=O)Nc1nnc(SCc2cc(=O)c(OC(=O)c3ccccc3)co2)s1", "activity change, negative = inhibition": "inactive: 1.23%"}
{"smiles": "O=C(O)C1CCN(C(=O)c2ccco2)CC1", "Potency": "inconclusive: 29.1 µM [activator, single point]"}
{"smiles": "O=C(CSc1nc(-c2ccccc2F)nc2cc(=O)[nH]n12)Nc1cccc(C(F)(F)F)c1", "Potency": "inconclusive: 23.1 µM [falling, single point]"}
{"smiles": "CCOC(=O)/C(=C\\c1ccc(C)cc1)NC(=O)c1ccccc1", "activity change, negative = inhibition": "inactive: -3.84%"}
{"smiles": "COc1ccc(C(CCNCc2ccc(OC(C)C)cc2)c2ccccc2OC)cc1", "note": "(stereo unspecified)", "Potency": "inconclusive: 29.1 µM [falling, single point]"}
{"smiles": "O=C(COC(=O)c1cccnc1Cl)NCCC1=CCCCC1", "activity change, negative = inhibition": "inactive: 1.77%"}
{"smiles": "Cc1nc(N)[nH]c(=O)c1CCCNc1ccc(CCC2(CCl)OCCO2)cc1", "Potency": "inconclusive: 9.2 µM [activator, partial curve]"}
{"smiles": "COc1cccc(-c2nc(S(=O)(=O)c3ccccc3)c(N3CCOCC3)o2)c1", "Potency": "inconclusive: 25.9 µM [falling, single point]"}
{"smiles": "Cc1ccc(C2CC(=O)C=C(Nc3ccc(Cl)cc3)C2)cc1", "note": "(stereo unspecified)", "activity change, negative = inhibition": "inactive: -24.8%"}
{"smiles": "CCn1c(SCC(=O)Nc2cccc(NC(C)=O)c2)nnc1-c1ccco1", "activity change, negative = inhibition": "inactive: -22.3%"}
{"smiles": "Cc1onc(-c2ccccc2)c1C(=O)N1CCN(S(=O)(=O)c2ccc(OC(F)(F)F)cc2)CC1", "Potency": "inconclusive: 0.731 µM [activator, partial curve, poor fit]"}
